Data: the supplement of paper PMC11006884
Most of the targets with a hit are listed elsewhere, so they are rarer here than in the full data. This is a noisy data set. The list shows a part of the results, in another mix than the full data.

Protein sequences, listed by entry. Tags and fused reporters are not part of them. Lines headed by an entry give the natural chain unless they say otherwise; changes in a name come on top.
UniProt Q9H0D6: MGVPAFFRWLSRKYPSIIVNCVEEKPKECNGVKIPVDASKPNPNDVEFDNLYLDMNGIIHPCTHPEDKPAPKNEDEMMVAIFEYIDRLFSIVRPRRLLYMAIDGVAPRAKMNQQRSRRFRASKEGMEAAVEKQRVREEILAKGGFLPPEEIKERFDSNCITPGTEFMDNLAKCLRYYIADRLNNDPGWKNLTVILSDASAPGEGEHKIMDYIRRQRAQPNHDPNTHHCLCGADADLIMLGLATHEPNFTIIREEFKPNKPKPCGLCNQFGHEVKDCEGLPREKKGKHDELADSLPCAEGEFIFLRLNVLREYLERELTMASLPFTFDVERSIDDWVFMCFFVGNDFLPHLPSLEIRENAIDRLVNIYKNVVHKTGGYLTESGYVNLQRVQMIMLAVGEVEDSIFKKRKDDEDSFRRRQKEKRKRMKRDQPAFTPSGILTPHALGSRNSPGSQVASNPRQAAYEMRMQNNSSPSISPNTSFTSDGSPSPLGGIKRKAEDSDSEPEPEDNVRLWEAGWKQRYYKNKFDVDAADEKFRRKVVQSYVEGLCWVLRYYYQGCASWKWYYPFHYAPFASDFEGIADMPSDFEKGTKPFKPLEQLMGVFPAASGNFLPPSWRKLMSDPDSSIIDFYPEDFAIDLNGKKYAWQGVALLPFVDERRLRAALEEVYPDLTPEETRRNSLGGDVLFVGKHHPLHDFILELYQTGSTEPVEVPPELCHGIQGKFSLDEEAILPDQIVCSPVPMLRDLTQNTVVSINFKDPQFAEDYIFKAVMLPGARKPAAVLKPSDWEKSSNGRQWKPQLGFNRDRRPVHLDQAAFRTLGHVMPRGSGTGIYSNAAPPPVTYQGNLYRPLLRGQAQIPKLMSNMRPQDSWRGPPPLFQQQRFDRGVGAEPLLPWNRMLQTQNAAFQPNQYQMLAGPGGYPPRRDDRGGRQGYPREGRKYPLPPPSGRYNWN
UniProt Q9BQI3, whole entry, looked up: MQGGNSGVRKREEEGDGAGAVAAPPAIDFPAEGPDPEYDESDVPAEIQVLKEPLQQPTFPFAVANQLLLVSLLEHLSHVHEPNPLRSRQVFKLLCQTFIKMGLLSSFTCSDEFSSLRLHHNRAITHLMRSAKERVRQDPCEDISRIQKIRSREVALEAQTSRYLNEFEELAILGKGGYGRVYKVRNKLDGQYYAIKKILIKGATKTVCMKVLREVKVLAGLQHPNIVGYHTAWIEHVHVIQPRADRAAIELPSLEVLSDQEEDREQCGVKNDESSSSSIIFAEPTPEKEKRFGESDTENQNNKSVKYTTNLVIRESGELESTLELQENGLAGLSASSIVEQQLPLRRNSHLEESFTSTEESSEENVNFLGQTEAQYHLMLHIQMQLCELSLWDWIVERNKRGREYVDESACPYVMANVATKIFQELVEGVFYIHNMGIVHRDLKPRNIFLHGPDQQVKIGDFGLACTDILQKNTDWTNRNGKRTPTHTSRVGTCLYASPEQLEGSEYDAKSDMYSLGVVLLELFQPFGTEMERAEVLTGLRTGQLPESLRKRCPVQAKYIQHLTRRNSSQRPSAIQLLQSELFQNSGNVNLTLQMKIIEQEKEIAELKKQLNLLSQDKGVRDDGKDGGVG
UniProt Q9BXP2: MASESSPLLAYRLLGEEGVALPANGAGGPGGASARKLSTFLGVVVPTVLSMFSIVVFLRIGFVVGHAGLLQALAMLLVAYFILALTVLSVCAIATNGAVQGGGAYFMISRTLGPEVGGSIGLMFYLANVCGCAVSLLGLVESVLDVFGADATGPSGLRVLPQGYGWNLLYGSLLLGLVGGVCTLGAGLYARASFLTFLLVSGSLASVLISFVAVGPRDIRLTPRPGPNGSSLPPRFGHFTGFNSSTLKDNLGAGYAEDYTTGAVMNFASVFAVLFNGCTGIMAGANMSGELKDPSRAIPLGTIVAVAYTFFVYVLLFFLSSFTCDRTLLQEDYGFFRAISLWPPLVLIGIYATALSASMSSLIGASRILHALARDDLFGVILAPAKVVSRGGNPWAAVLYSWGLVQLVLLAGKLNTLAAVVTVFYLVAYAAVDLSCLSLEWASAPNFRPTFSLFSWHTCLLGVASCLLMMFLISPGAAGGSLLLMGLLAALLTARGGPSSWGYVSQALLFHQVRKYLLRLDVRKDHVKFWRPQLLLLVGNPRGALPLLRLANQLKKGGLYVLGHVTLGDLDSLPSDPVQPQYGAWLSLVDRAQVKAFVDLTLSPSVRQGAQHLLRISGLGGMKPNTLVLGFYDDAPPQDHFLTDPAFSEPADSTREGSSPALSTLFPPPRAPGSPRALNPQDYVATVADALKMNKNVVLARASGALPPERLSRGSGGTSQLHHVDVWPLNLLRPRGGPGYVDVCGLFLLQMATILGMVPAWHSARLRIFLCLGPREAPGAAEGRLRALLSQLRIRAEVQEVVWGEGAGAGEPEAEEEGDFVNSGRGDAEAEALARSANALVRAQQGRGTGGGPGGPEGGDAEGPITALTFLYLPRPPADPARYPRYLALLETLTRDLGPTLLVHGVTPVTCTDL
UniProt Q9BYW2: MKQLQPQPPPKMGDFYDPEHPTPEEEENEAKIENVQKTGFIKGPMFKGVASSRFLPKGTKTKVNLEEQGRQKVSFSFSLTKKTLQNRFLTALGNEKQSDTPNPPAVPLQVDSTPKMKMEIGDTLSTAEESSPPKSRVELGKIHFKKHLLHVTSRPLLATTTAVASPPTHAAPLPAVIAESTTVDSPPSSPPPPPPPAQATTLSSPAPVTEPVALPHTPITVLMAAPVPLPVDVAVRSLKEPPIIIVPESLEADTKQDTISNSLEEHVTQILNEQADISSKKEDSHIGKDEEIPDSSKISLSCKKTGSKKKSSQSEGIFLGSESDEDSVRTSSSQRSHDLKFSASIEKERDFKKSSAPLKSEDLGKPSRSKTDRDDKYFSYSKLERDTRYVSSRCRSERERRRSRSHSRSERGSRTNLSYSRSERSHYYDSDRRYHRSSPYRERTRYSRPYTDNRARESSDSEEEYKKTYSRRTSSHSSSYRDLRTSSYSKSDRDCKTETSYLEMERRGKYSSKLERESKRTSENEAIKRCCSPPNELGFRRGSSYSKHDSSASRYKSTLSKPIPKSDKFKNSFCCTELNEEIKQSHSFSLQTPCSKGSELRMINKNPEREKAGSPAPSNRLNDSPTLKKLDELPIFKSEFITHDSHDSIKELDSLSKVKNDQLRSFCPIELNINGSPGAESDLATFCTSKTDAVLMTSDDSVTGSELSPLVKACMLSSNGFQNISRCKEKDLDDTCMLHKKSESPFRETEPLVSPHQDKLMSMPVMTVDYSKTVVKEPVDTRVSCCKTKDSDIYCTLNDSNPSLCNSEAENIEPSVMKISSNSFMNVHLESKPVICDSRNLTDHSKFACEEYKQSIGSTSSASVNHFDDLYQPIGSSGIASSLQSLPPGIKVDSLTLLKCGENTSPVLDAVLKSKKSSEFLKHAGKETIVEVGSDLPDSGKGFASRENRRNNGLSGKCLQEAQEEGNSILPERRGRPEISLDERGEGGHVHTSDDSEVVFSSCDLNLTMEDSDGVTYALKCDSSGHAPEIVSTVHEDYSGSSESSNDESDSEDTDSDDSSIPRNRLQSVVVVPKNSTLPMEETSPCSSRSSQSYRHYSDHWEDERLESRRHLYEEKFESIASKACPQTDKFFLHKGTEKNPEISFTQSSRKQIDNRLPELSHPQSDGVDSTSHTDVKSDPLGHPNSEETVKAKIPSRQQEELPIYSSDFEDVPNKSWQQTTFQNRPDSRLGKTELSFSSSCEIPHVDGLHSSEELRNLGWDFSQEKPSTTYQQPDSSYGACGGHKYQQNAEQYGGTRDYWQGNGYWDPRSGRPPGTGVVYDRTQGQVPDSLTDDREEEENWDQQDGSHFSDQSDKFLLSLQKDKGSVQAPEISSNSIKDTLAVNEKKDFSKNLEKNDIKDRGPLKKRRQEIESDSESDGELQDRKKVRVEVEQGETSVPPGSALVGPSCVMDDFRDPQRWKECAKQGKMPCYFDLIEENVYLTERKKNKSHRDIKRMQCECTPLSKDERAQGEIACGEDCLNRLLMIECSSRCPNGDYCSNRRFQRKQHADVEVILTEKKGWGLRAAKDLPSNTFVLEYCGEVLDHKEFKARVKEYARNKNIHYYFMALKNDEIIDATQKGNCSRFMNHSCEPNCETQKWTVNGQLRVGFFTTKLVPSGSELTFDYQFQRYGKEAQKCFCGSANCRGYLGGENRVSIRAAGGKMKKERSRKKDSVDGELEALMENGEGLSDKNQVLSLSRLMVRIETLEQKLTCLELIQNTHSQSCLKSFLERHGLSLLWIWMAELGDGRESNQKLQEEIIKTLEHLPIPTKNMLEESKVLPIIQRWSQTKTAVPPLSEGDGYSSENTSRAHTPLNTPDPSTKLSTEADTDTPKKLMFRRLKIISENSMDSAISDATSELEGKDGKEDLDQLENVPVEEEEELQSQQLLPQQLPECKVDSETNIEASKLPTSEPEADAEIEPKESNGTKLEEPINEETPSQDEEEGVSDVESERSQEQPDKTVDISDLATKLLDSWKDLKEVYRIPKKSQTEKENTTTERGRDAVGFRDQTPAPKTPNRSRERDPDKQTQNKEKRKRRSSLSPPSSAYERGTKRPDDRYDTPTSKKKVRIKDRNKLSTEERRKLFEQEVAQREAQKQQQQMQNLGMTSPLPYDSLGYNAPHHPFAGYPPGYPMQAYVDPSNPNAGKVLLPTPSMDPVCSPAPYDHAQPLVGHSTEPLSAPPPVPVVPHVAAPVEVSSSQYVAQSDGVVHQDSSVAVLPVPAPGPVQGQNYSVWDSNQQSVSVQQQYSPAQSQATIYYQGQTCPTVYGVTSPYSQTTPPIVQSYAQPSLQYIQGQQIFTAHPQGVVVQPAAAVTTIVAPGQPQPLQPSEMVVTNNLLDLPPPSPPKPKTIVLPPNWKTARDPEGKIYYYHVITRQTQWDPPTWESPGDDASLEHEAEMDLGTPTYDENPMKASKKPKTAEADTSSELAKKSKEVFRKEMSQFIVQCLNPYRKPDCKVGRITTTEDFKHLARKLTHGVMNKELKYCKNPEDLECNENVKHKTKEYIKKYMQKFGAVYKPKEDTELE
UniProt Q9BXP5: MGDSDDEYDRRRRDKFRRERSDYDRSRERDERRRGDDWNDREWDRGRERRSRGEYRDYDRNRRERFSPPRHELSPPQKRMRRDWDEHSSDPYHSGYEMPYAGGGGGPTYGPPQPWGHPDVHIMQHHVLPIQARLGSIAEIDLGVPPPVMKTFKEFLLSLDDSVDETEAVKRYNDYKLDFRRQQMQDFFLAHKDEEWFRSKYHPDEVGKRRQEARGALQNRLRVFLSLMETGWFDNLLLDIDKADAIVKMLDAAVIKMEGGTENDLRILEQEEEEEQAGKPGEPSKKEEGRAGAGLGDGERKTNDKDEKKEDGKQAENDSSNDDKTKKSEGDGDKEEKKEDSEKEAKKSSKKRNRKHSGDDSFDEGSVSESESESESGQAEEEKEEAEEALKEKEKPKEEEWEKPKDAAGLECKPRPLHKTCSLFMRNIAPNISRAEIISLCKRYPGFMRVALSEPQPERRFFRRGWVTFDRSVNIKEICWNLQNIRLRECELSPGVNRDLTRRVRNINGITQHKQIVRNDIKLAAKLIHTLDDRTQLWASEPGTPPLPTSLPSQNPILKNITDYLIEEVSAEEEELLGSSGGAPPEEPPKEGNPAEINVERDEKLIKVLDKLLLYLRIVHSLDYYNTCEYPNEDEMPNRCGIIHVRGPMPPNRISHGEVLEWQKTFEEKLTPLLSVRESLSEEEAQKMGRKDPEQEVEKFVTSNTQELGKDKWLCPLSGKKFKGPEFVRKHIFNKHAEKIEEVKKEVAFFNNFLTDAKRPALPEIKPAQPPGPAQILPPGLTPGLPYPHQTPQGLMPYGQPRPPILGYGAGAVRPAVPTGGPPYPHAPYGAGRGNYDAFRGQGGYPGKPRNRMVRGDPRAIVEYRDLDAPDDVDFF
UniProt Q9BUK6: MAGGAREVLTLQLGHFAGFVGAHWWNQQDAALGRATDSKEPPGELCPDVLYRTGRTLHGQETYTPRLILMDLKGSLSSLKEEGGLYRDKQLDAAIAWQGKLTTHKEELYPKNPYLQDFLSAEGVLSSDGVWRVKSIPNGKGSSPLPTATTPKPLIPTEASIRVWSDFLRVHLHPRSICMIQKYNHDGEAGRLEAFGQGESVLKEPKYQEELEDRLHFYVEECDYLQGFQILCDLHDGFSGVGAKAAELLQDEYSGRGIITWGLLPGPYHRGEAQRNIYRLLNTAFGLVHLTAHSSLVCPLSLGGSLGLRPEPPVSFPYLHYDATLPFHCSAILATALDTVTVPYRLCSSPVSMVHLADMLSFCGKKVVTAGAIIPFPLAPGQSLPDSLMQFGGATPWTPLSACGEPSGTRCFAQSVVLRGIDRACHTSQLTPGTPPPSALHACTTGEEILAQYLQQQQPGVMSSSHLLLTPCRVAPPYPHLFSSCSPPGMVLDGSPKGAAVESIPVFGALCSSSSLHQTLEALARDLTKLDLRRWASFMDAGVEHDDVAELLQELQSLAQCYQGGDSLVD

Compound: COC(=O)/C=C/c1ccccc1 [methyl cinnamate]
Assay: log2 ratio of iodoacetamide-alkyne labeling of the cysteine site, DMSO over compound (competition); higher = stronger covalent engagement of the cysteine by the compound, active = 1 or more
Details: 500 µM; treatment time 1 h; system: HEK293T cell lysate
Procedure, shortened: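 After 1 h at ambient temperature with vehicle or electrophile (500 µM), HEK293T lysate (2 mg/mL) was labelled for 1 h with iodoacetamide alkyne and clicked to sCIP-TMT reagents. Pooled samples were trypsin-digested overnight at 37 °C, streptavidin-enriched, acid-eluted and analysed by Orbitrap Eclipse LC-MS/MS with FAIMS, then quantified in FragPipe over three replicates with duplicate channels. A cysteine's log2 competition ratio is its mean control-channel over mean compound-channel reporter intensity. Cysteines quantified in only one replicate were not included.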

log2 ratio of iodoacetamide-alkyne labeling, inactive:
HERPUD2 C28 (UniProt Q9BSE4) 0.549
EDEM3 C82 (UniProt Q9BZQ6) 0.0451
XRN2 C159 (UniProt Q9H0D6) 0.223
UniProt Q9BQI3_C494 0.0265
GNB1L C109 (UniProt Q9BYB4) -0.163
UniProt Q9H0G5_C171 0.115
XRN2 C736 (UniProt Q9H0D6) -0.0569
COPS4 C70 (UniProt Q9BT78) 0.0951
TBCD C1175 (UniProt Q9BTW9) 0.0822
DDX24 C746 (UniProt Q9GZR7) 0.206
MYBBP1A C968 (UniProt Q9BQG0) -0.0359
ZYG11B C643 (UniProt Q9C0D3) -0.2
UniProt Q9H1B7_C385 0.0618
REXO4 C418 (UniProt Q9GZR2) 0.197
SLK C1138 (UniProt Q9H2G2) 0.17
ILKAP C190 (UniProt Q9H0C8) -0.0171
PUS7L C142 (UniProt Q9H0K6) -0.112
XRN2 C62 (UniProt Q9H0D6) -0.148
XPO4 C1149 (UniProt Q9C0E2) -0.201
RIOK1 C264 (UniProt Q9BRS2) 0.0384
TRIOBP C2233 (UniProt Q9H2D6) 0.13
SPATA5L1 C78 (UniProt Q9BVQ7) 0.251
RAB11FIP5 C337 (UniProt Q9BXF6) 0.232
KLC2 C441 (UniProt Q9H0B6) 0.312
SLC12A9 C911 (UniProt Q9BXP2) -0.019
SETD2 C958 (UniProt Q9BYW2) 0.271
UniProt Q9BXP5_C490 0.0425
MRPL37 C188 (UniProt Q9BZE1) 0.144
UniProt Q9BU76_C58 0.397
MRPL20 C93 (UniProt Q9BYC9) 0.198
UniProt Q9BTE3_C287 0.347
TUBGCP2 C350 (UniProt Q9BSJ2) -0.203
HNRNPUL1 C421 (UniProt Q9BUJ2) 0.15
TBCD C625 (UniProt Q9BTW9) -0.0181
ACAT2 C92 (UniProt Q9BWD1) -0.0227
SSBP4 C81 (UniProt Q9BWG4) 0.363
MSTO1 C46 (UniProt Q9BUK6) 0.299

Pulled one by one from above, two records:
log2 ratio of iodoacetamide-alkyne labeling, inactive:
REXO4 C418 (UniProt Q9GZR2) 0.197
GNB1L C109 (UniProt Q9BYB4) -0.163
